According to publication doi:10.1101/2024.04.12.589178:
Results are given in words; binding and its absence hold for the method and conditions named. Binding seen in cells or lysates may run through a third protein. Some binding calls cover weakened binding; strength is not graded here.

Protein sequences, listed by entry. Tags and fused reporters are not part of them. Residues count along the entry.
UniProt P30405, residues 30-207: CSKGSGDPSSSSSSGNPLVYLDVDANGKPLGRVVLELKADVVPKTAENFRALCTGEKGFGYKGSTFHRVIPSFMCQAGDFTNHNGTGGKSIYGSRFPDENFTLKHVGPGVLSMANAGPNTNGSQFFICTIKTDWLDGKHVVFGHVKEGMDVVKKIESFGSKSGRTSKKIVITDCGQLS

Legend:
Assay in all cases: co-IP
[1] = biological target: CyclophilinD (human (endogenous in HEK293T)) (UniProt P30405)
[2] = biological target: T1, MIC19 (human (endogenous in HEK293T)) (UniProt Q9NX63)
T1 sequence: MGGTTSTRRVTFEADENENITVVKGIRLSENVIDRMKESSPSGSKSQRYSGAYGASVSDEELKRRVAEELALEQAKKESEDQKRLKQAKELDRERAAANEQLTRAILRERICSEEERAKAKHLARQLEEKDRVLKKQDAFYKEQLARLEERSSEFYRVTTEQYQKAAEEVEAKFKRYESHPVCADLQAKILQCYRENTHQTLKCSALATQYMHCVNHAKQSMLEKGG

[3] = biological target: T2, MIC60 (human (endogenous in HEK293T)) (UniProt Q16891)
T2 sequence: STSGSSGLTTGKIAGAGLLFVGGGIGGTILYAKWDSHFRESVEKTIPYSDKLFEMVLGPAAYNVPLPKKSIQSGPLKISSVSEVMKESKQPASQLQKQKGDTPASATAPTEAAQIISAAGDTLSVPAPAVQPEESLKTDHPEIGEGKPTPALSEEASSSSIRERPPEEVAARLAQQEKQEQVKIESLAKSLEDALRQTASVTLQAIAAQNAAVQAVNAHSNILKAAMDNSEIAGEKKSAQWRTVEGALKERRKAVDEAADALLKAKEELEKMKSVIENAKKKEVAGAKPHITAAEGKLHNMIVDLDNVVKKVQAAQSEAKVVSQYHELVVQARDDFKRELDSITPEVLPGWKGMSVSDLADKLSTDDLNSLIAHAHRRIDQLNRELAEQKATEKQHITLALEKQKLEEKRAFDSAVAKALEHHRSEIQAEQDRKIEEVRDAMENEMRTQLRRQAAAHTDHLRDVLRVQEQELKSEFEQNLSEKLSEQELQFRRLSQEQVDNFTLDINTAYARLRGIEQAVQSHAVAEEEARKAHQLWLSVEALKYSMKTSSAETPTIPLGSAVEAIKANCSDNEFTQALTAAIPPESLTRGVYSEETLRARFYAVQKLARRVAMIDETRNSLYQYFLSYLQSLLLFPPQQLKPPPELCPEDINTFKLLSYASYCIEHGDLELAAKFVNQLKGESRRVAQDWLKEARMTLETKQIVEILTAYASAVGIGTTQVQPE

Measured: binding

B1: MPV17-BirA* (protein, UniProt P39210 1-176)
chain: MALWRAYQRALAAHPWKVQVLTAGSLMGLGDIISQQLVERRGLQEHQRGRTLTMVSLGCGFVGPVVGGWYKVLDRFIPGTTKVDALKKMLLDQGGFAPCFLGCFLPLVGALNGLSAQDNWAKLQRDYPDALITNYYLWPAVQLANFYLVPLHYRLAVVQCVAVIWNSYLSWKAHRL
binds: [1] | [2] | [3]
